The target in this test is EGFR (transfected HCT116 cells) (UniProt P00533). Description: proximity ligation; HCT116 cells co-transfected with Myc-ZNRF3ΔR and EGFR; Duolink In Situ Red; anti-EGFR (D38B1) rabbit and anti-Myc-tag (9B11) mouse antibodies; no primary antibody as negative control.

By UniProt entry, the sequences of proteins in these tests, tags left out. Where a name states a change or a piece, a line headed by the entry shows the natural chain unless it says otherwise.
UniProt Q9ULT6: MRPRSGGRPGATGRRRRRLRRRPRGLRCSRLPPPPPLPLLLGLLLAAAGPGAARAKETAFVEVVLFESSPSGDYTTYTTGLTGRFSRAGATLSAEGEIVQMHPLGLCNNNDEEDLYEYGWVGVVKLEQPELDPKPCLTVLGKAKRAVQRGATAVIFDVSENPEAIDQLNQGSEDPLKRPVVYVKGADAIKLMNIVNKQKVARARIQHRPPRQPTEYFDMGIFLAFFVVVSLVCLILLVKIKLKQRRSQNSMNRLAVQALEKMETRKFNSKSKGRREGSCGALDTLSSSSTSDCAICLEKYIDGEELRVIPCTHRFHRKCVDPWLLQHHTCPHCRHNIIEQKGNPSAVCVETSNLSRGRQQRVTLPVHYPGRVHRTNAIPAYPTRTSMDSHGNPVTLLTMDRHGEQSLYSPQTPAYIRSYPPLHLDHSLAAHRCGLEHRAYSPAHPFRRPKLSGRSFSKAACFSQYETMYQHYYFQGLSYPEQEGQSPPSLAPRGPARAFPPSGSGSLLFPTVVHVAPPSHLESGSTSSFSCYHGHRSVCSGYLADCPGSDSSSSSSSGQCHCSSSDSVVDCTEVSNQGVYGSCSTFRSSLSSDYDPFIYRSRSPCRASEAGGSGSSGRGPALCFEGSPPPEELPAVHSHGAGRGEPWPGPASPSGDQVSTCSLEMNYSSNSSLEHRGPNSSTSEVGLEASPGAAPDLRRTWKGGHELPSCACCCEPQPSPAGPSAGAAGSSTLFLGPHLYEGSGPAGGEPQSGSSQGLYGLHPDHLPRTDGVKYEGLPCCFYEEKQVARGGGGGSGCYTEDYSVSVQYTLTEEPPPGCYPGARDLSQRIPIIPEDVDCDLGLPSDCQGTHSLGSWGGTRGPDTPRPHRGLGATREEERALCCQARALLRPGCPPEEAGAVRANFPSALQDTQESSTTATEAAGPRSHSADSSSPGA

Results are given in words; binding and its absence hold for the method and conditions named. In cells and extracts the contact can be indirect. Binding calls can cover weak binding; strength is not graded here.

With “Myc-ZNRF3ΔRING (from UniProt Q9ULT6) (enzyme)”, the binding entry was “binds”.

The record behind these values is doi:10.1101/2024.01.10.574969.
